The target in this assay is T1, recombinant human B7-H3 (human) (UniProt Q5ZPR3).
T1 sequence (looked up): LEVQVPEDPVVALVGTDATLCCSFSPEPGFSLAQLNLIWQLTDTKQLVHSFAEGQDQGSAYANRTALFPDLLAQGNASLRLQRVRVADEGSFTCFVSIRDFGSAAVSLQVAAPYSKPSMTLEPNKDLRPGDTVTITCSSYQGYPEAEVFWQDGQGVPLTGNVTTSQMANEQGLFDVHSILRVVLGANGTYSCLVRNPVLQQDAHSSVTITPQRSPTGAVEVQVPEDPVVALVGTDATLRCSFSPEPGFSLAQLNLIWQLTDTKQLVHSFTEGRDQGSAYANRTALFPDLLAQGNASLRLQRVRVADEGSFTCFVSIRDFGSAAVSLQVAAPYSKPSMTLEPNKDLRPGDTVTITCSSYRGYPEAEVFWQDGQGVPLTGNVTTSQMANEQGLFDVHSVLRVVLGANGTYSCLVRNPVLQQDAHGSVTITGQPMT
Briefly: B7-H3 binding ELISA, accelerated storage at 25 +/- 2 C through 6 months. On the technique in general: ELISA stands for enzyme-linked immunosorbent assay.

These are yes or no findings as the source states them, for the method shown. Some results given as binding are weak or reduced against the parent protein; the word gives no strength.

B1: enoblituzumab (antibody, human IgG1, kappa, V domains shown)
VH: EVQLVESGGGLVQPGGSLRLSCAASGFTFSSFGMHWVRQAPGKGLEWVAYISSDSSAIYYADTVKGRFTISRDNAKNSLYLQMNSLRDEDTAVYYCGRGRENIYYGSRLDYWGQGTTVTVSS
VL: DIQLTQSPSFLSASVGDRVTITCKASQNVDTNVAWYQQKPGKAPKALIYSASYRYSGVPSRFSGSGSGTDFTLTISSLQPEDFATYYCQQYNNYPFTFGQGTKLEIKR
With B1, the binding entry is given as “binds”.

Source of the values: patent US20240336687A1.
